{"sequences": {"note": "Amino acid sequences for entries named in this document (tags omitted). A change or cut given only in a name is not applied to a line headed by its entry.", "UniProt P24462, whole entry, looked up": "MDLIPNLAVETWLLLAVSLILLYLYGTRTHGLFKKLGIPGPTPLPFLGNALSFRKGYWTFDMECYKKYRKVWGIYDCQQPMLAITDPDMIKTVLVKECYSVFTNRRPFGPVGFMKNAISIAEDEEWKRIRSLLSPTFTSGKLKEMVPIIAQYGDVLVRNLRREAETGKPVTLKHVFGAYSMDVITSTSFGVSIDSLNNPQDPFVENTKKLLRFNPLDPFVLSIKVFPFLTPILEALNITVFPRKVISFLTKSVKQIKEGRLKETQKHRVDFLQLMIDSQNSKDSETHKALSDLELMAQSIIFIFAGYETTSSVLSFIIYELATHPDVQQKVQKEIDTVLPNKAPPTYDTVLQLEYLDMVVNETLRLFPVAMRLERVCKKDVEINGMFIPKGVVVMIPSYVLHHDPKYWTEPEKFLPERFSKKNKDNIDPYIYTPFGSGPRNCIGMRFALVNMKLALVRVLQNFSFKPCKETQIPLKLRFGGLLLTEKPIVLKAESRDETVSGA", "UniProt Q5TCH4": "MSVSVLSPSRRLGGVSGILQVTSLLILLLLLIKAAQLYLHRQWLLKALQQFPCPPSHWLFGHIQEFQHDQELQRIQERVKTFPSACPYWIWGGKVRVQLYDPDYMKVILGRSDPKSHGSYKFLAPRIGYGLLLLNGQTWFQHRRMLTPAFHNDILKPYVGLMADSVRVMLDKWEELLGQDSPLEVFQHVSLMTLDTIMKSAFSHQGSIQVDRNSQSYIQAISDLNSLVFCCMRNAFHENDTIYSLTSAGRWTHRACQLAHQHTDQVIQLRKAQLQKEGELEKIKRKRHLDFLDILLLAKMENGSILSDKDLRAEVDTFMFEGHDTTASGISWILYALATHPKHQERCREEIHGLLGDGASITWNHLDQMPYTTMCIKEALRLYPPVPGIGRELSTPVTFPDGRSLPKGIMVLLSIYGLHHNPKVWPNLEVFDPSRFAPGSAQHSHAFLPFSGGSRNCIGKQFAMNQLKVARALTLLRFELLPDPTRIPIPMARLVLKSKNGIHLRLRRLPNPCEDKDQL", "UniProt P08684, whole entry, looked up": "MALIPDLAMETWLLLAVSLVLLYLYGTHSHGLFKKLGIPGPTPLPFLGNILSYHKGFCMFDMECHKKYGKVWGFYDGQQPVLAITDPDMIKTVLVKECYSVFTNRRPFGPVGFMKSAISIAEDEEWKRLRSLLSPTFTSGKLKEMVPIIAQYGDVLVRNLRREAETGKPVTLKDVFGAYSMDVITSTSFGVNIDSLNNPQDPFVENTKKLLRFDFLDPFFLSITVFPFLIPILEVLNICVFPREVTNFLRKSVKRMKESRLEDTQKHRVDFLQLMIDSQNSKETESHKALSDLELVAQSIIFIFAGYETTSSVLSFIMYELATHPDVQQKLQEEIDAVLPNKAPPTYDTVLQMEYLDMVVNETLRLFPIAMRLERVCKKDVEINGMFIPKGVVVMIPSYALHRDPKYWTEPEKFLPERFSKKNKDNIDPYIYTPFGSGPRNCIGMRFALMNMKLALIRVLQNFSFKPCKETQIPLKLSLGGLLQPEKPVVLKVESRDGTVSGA", "UniProt P04637, whole entry, looked up": "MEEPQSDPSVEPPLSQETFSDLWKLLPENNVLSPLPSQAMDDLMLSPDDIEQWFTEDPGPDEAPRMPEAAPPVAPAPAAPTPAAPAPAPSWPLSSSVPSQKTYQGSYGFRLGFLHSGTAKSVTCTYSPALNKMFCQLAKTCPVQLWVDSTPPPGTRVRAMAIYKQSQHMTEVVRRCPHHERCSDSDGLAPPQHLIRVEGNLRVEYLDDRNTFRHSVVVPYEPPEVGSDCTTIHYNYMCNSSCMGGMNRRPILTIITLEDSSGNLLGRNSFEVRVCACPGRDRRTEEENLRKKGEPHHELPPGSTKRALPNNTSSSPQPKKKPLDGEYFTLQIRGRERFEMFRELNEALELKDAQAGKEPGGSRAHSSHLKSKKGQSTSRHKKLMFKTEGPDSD"}, "source": "PubChem BioAssay (EPA / NIEHS)", "key": {"[1]": {"read-out": "Glutamate-cysteine ligase regulatory (GCLM), GCLM (gene 2730)", "test": "LTEA_HepaRG_GCLM: Life Technologies and Expression Analysis (LTEA) Assay for Glutamate-cysteine ligase regulatory (GCLM) using HepaRG (AID 2283500)", "conditions": "actives raise or lower the signal; mRNA level, 48 h", "in_short": "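HepaRG, 48 h dosing, 100 uM top, half-log x8, 0.5% DMSO vehicle. Readout: GCLM mRNA by TaqMan qRT-PCR, housekeeping-normalized (ACTB/GAPDH/POLR2A). Curves fit bidirectionally vs DMSO baseline.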"}, "[2]": {"read-out": "solute carrier (SLC22A1), SLC22A1 (gene 6580)", "test": "LTEA_HepaRG_SLC22A1: Life Technologies and Expression Analysis (LTEA) Assay for solute carrier (SLC22A1) using HepaRG (AID 2283524)", "conditions": "actives raise or lower the signal; mRNA level, 48 h", "in_short": "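qRT-PCR readout (TaqMan, Fluidigm arrays) of SLC22A1 transcript, normalized to three housekeeping genes; bidirectional curve fit relative to 0.5% DMSO vehicle. Differentiated human HepaRG cells, 48 h chemical exposure, top concentration 100 uM, half-log steps, eight points.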"}, "[3]": {"test": "Tanguay_ZF_120hpf_CIRC_legacy: (Legacy) Oregon State University Tanguay Lab 120 Hour Post-fertilization zebrafish Assay for Circulatory Malformation (AID 2283651; active means hit-call score of the fitted dose curve at least 0.9, where 1 is the maximum)", "in_short": "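Static exposure, 6–120 hpf, 28C, sealed and dark; one dechorionated 5D embryo/well; DMSO 0.64% v/v final. Binary circulation endpoint by brightfield; dead embryos not scored.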"}, "[4]": {"read-out": "Early growth response protein 1 (EGR1) transcription factor, EGR1 (gene 1958)", "test": "LTEA_HepaRG_EGR1: Life Technologies and Expression Analysis (LTEA) Assay for Early growth response protein 1 (EGR1) transcription factor using HepaRG (AID 2283490)", "conditions": "actives raise or lower the signal; mRNA level, 48 h", "in_short": "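HepaRG, 48 h exposure, 8-pt half-log series from 100 uM, 0.5% DMSO vehicle; EGR1 transcript by TaqMan qRT-PCR (Fluidigm array), housekeeping-normalized; bidirectional fit relative to DMSO baseline.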"}, "[5]": {"test": "LTEA_HepaRG_LDH_cytotoxicity: Cytotoxicity Assessment in the Life Technologies and Expression Analysis (LTEA) Assay (AID 2283563; active means hit-call score of the fitted dose curve at least 0.9, where 1 is the maximum;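 further: LDH activity released into spent culture medium as a marker of cell death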)", "in_short": "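Spent-medium LDH after 48 h chemical exposure of HepaRG cells in serum-free induction medium; eight concentrations, half-log dilutions from 100 uM, duplicate wells, fitted upward relative to 0.5% DMSO.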"}, "[6]": {"read-out": "Cytochrome P450 3A7 (Homo sapiens) (UniProt P24462)", "test": "LTEA_HepaRG_CYP3A7: Life Technologies and Expression Analysis (LTEA) Assay for CYP3A7 using HepaRG (AID 2283492)", "conditions": "actives raise or lower the signal; mRNA level, 48 h", "in_short": "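qRT-PCR of CYP3A7 in HepaRG lysates after 48 h treatment; concentration-response (8 points, max 100 uM) analysed bidirectionally relative to 0.5% DMSO controls.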"}, "[7]": {"read-out": "Cytochrome P450 4A22 (Homo sapiens) (UniProt Q5TCH4)", "test": "LTEA_HepaRG_CYP4A22: Life Technologies and Expression Analysis (LTEA) Assay for Cytochrome P450 4A22 (CYP4A22) using HepaRG (AID 2283495)", "conditions": "actives raise or lower the signal; mRNA level, 48 h", "in_short": "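Concentration-response (8 points, max 100 uM, 0.5% DMSO) in human HepaRG liver cells after 48 h exposure. CYP4A22 mRNA by TaqMan qRT-PCR with housekeeping-gene normalization.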"}, "[8]": {"read-out": "Cytochrome P450 3A4 (Homo sapiens) (UniProt P08684)", "test": "LTEA_HepaRG_CYP3A4: Life Technologies and Expression Analysis (LTEA) Assay for CYP3A4 using HepaRG (AID 2283487)", "conditions": "actives raise or lower the signal; mRNA level, 48 h", "in_short": "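Differentiated HepaRG cells in serum-free induction medium exposed in duplicate for 48 h to 8 half-log concentrations up to 100 uM in 0.5% DMSO. CYP3A4 mRNA measured by qRT-PCR normalized to ACTB, GAPDH and POLR2A; bidirectional fit versus DMSO.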"}, "[9]": {"read-out": "Glutathione S-transferase M3 (GSTM3), GSTM3 (gene 2947)", "test": "LTEA_HepaRG_GSTM3: Life Technologies and Expression Analysis (LTEA) Assay for Glutathione S-transferase M3 (GSTM3) using HepaRG (AID 2283501)", "conditions": "actives raise or lower the signal; mRNA level, 48 h", "in_short": "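Expression of GSTM3 is determined by qRT-PCR in human liver HepaRG cells treated 48 h with an 8-point half-log range from 100 uM in 0.5% DMSO.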"}, "[10]": {"read-out": "Insulin-like growth factor-binding protein 1 (IGFBP1), IGFBP1 (gene 3484)", "test": "LTEA_HepaRG_IGFBP1: Life Technologies and Expression Analysis (LTEA) Assay for Insulin-like growth factor-binding protein 1 (IGFBP1) using HepaRG (AID 2283508)", "conditions": "actives raise or lower the signal; mRNA level, 48 h", "in_short": "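HepaRG, 48 h, 8 conc. (max 100 uM, half-log), duplicates, 0.5% DMSO. Readout: TaqMan qRT-PCR, ACTB/GAPDH/POLR2A normalisation. Fit: bidirectional vs DMSO.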"}, "[11]": {"read-out": "Transforming Growth Factor (TGFA), TGFA (gene 7039)", "test": "LTEA_HepaRG_TGFA: Life Technologies and Expression Analysis (LTEA) Assay for Transforming Growth Factor (TGFA) using HepaRG (AID 2283532)", "conditions": "actives raise or lower the signal; mRNA level, 48 h", "in_short": "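qRT-PCR read-out of TGFA transcript, normalized to three housekeeping genes, fitted bidirectionally against 0.5% DMSO baseline. Human HepaRG cultures received chemicals for 48 h at eight half-log concentrations, top 100 uM.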"}, "[12]": {"read-out": "TIMP1, TIMP1 (gene 7076)", "test": "LTEA_HepaRG_TIMP1: Life Technologies and Expression Analysis (LTEA) Assay for TIMP1 using HepaRG (AID 2283534)", "conditions": "actives raise or lower the signal; mRNA level, 48 h", "in_short": "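TIMP1 induction or repression in HepaRG cells after 48 h chemical exposure (eight concentrations, highest 100 uM), assessed by normalized qRT-PCR with bidirectional fitting to DMSO controls.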"}, "[13]": {"test": "TOX21_p53_BLA_p2_viability: Viability Assessment in the Tox21 HCT-116 p53 Agonism Beta-lactamase Assay, Phase 2 (AID 2283591; active means hit-call score of the fitted dose curve at least 0.9, where 1 is the maximum;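 further: compound exposure lasted 16 h at 37 °C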)", "in_short": "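HCT116 p53-bla cells, 4000/well, dosed after 5 h plating (217-fold dilution of DMSO stocks) and incubated 16 h at 37C. Viability taken as cellular ATP by CellTiter-Glo luminescence after 30 min RT; signal loss marks cytotoxicity.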"}, "[14]": {"target": "Cellular tumor antigen p53 (Homo sapiens) (UniProt P04637)", "test": "TOX21_p53_BLA_p2_ratio: Tox21 HCT-116 p53 Agonism Beta-lactamase Assay, Ratio, Phase 2 (AID 2283592; active means hit-call score of the fitted dose curve at least 0.9, where 1 is the maximum)", "in_short": "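DMSO-normalized, positive-direction endpoint derived from the 460 nm/530 nm FRET ratio in HCT116 p53 beta-lactamase reporter cells exposed 16 h at 37C and loaded with CCF4-AM for 2 h.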"}, "[15]": {"test": "ATG_XTT_Cytotoxicity: Cytotoxicity Assessment in the Attagene TRANS-FACTORIAL HepG2 Assay (AID 2283584; active means hit-call score of the fitted dose curve at least 0.9, where 1 is the maximum;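 further: cells exposed to compound for 24 h before reading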)", "in_short": "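24 h chemical exposure of reporter-transfected HepG2; XTT signal loss vs DMSO indicates cytotoxicity.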"}}, "note": "For some of these results: This list holds what a sample rich in hits left over. Results filed as inconclusive are left out. The list shows a part of the results, in another mix than the full data. Active and inactive are the calls of the source. How the source made its calls, unless noted: active means hit-call score of the fitted dose curve at least 0.9, where 1 is the maximum; inactive means score below 0.9."}
{"smiles": "CCN(CC)C(=O)c1cccc(C)c1", "values": [{"measurement": "outcome", "setting": "[1]", "value": "inactive"}]}
{"smiles": "COC(=O)CCCC(=O)OC", "values": [{"measurement": "outcome", "setting": "[2]", "value": "inactive"}, {"measurement": "outcome", "setting": "[3]", "value": "inactive"}]}
{"smiles": "Cc1oc2c(NC(=O)c3c(Cl)cccc3Cl)cccc2c1C(C)(C)O", "values": [{"measurement": "outcome", "setting": "[4]", "value": "inactive"}, {"measurement": "AC50", "setting": "[5]", "value": "active: 33 µM"}]}
{"smiles": "c1ccc2n[nH]nc2c1", "values": [{"measurement": "outcome", "setting": "[6]", "value": "inactive"}, {"measurement": "outcome", "setting": "[7]", "value": "inactive"}]}
{"smiles": "O=C(O)c1cc(N=Nc2ccc(S(=O)(=O)Nc3ccccn3)cc2)ccc1O", "values": [{"measurement": "outcome", "setting": "[8]", "value": "inactive"}, {"measurement": "outcome", "setting": "[9]", "value": "inactive"}, {"measurement": "outcome", "setting": "[10]", "value": "inactive"}, {"measurement": "outcome", "setting": "[11]", "value": "inactive"}, {"measurement": "AC50", "setting": "[12]", "value": "active: 12.4 µM"}]}
{"smiles": "OC[C@H]1O[C@@H]2O[C@H]3[C@H](O)[C@@H](O)[C@@H](O[C@H]4[C@H](O)[C@@H](O)[C@@H](O[C@H]5[C@H](O)[C@@H](O)[C@@H](O[C@H]6[C@H](O)[C@@H](O)[C@@H](O[C@H]7[C@H](O)[C@@H](O)[C@@H](O[C@H]1[C@H](O)[C@H]2O)O[C@@H]7CO)O[C@@H]6CO)O[C@@H]5CO)O[C@@H]4CO)O[C@@H]3CO", "values": [{"measurement": "outcome", "setting": "[8]", "value": "inactive"}]}
{"smiles": "CCCCC(CC)CCC(CC(C)C)OS(=O)(=O)O", "note": "(centres undefined)", "values": [{"measurement": "outcome", "setting": "[13]", "value": "inactive"}]}
{"smiles": "CCC[C@H](N[C@@H](C)C(=O)N1[C@H](C(=O)O)C[C@@H]2CCCC[C@@H]21)C(=O)OCC", "values": [{"measurement": "outcome", "setting": "[14]", "value": "inactive"}]}
{"smiles": "CC(=O)CCCCn1c(=O)c2c(ncn2C)n(C)c1=O", "values": [{"measurement": "outcome", "setting": "[14]", "value": "inactive"}]}
{"smiles": "CCCCC(CC)(CO)CO", "values": [{"measurement": "outcome", "setting": "[13]", "value": "inactive"}]}
{"smiles": "CCC(=C(c1ccc(O)cc1)c1ccc(OCCN(C)C)cc1)c1ccccc1", "values": [{"measurement": "AC50", "setting": "[15]", "value": "active: 26.2 µM"}]}
{"smiles": "CC[N+](C)(CC)CC", "values": [{"measurement": "outcome", "setting": "[13]", "value": "inactive"}]}
